# Positions count from the first letter of the chain named. This is one part of the list. For some of these results: At the low end of the ranking the order means little. For some of these results: Construct or isoform of the protein are uncertain.
# How the values were obtained:
# Conditions in all cases: yeast three-hybrid, YBZ-1, SC-Leu-His + 0.5 mM 3-AT, 4 days
# [1] = target: T1, PUM1 PUF domain R4-WAW N971W + H972A + Q975W (UniProt Q14671)
# T1 sequence: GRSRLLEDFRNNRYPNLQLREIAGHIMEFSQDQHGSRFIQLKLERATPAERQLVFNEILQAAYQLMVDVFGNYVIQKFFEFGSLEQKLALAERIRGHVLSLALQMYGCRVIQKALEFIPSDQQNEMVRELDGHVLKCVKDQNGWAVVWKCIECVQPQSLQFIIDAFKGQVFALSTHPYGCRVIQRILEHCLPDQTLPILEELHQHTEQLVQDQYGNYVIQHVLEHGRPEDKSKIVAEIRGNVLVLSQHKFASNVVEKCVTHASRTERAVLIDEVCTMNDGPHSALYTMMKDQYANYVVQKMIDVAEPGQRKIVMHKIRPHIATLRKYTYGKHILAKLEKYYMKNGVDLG
# [2] = target: T2, PUM1 PUF domain R4-WFG N971W + H972F + Q975G (UniProt Q14671)
# T2 sequence: T1 sequence with A145F, W148G
# [3] = target: T3, PUM1 PUF domain R4-WGA N971W + H972G + Q975A (UniProt Q14671)
# T3 sequence: T1 sequence with A145G, W148A
# [4] = target: T4, PUM1 PUF domain R4-WGC N971W + H972G + Q975C (UniProt Q14671)
# T4 sequence: T1 sequence with A145G, W148C
# [5] = target: T5, PUM1 PUF domain R4-WGD N971W + H972G + Q975D (UniProt Q14671)
# T5 sequence: T1 sequence with A145G, W148D
# [6] = target: T6, PUM1 PUF domain R4-WGM N971W + H972G + Q975M (UniProt Q14671)
# T6 sequence: T1 sequence with A145G, W148M
# [7] = target: T7, PUM1 PUF domain R4-WGR N971W + H972G + Q975R (Homo sapiens) (UniProt Q14671)
# T7 sequence: T1 sequence with A145G, W148R
# [8] = target: T8, PUM1 PUF domain R4-WGS N971W + H972G + Q975S (Homo sapiens) (UniProt Q14671)
# T8 sequence: T1 sequence with A145G, W148S
# [9] = target: T9, PUM1 PUF domain R4-WGT N971W + H972G + Q975T (Homo sapiens) (UniProt Q14671)
# T9 sequence: T1 sequence with A145G, W148T
# [10] = target: T10, PUM1 PUF domain R4-WGV N971W + H972G + Q975V (UniProt Q14671)
# T10 sequence: T1 sequence with A145G, W148V
# [11] = target: T11, PUM1 PUF domain R4-WGW N971W + H972G + Q975W (UniProt Q14671)
# T11 sequence: T1 sequence with A145G
# [12] = target: T12, PUM1 PUF domain R4-WSA N971W + H972S + Q975A (UniProt Q14671)
# T12 sequence: T1 sequence with A145S, W148A
# [13] = target: T13, PUM1 PUF domain R4-WSC N971W + H972S + Q975C (UniProt Q14671)
# T13 sequence: T1 sequence with A145S, W148C
# [14] = target: T14, PUM1 PUF domain R4-WSG N971W + H972S + Q975G (UniProt Q14671)
# T14 sequence: T1 sequence with A145S, W148G
# [15] = target: T15, PUM1 PUF domain R4-WSH N971W + H972S + Q975H (Homo sapiens) (UniProt Q14671)
# T15 sequence: T1 sequence with A145S, W148H
# [16] = target: T16, PUM1 PUF domain R4-WSR N971W + H972S + Q975R (UniProt Q14671)
# T16 sequence: T1 sequence with A145S, W148R
# [17] = target: T17, PUM1 PUF domain R4-WSS N971W + H972S + Q975S (UniProt Q14671)
# T17 sequence: T1 sequence with A145S, W148S
# [18] = target: T18, PUM1 PUF domain R4-WST N971W + H972S + Q975T (UniProt Q14671)
# T18 sequence: T1 sequence with A145S, W148T
# [19] = target: T19, PUM1 PUF domain R4-WSW N971W + H972S + Q975W (UniProt Q14671)
# T19 sequence: T1 sequence with A145S
# [20] = target: T20, PUM1 PUF domain R4-WSY N971W + H972S + Q975Y (UniProt Q14671)
# T20 sequence: T1 sequence with A145S, W148Y
# [21] = target: T21, PUM1 PUF domain R5-PHQ R6-SWD C1007P + R1008H + N1043S + Y1044W + Q1047D (UniProt Q14671)
# T21 sequence: T1 sequence with W144N, A145H, W148Q, C180P, R181H, N216S, Y217W, Q220D
# [22] = target: T22, PUM1 PUF domain R6-SWD R7-NPG N1043S + Y1044W + Q1047D + S1079N + N1080P + E1083G (Homo sapiens) (UniProt Q14671)
# T22 sequence: T1 sequence with W144N, A145H, W148Q, N216S, Y217W, Q220D, S252N, N253P, E256G
# [23] = target: T23, PUM1 PUF domain R2-VFQ R3-THE R4-TFR N899V + Y900F + C935T + R936H + Q939E + N971T + H972F + Q975R (UniProt Q14671)
# T23 sequence: T1 sequence with N72V, Y73F, C108T, R109H, Q112E, W144T, A145F, W148R
# [24] = target: T24, PUM1 PUF domain R3-THE R4-TFR R7-NPG C935T + R936H + Q939E + N971T + H972F + Q975R + S1079N + N1080P + E1083G (Homo sapiens) (UniProt Q14671)
# T24 sequence: T1 sequence with C108T, R109H, Q112E, W144T, A145F, W148R, S252N, N253P, E256G
# [25] = target: T25, PUM1 PUF domain R3-THE R4-TFR R7-NPG C935T + R936H + Q939E + N971T + H972F + Q975R + S1079N + N1080P + E1083G (UniProt Q14671)
# T25 sequence: T1 sequence with C108T, R109H, Q112E, W144T, A145F, W148R, S252N, N253P, E256G
sequence,measurement,setting,value
GGCUAGAACUAGUGGAUCCCCCGGCGCCCGGCGGCUCGAGCCCGGGUAAGUGUAGAUAGUCUGCAUGCCGCCGGGCGCCAUGCCUGCAGGUCGACUCUAGAAAACAUG,binding signal (log2 enrichment (interaction score)),[1],< -7.08
same,binding signal (log2 enrichment (interaction score)),[2],< -5.92
same,binding signal (log2 enrichment (interaction score)),[3],< -5.39
same,binding signal (log2 enrichment (interaction score)),[4],< -6.79
same,binding signal (log2 enrichment (interaction score)),[5],< -5.24
same,binding signal (log2 enrichment (interaction score)),[6],< -5.67
same,binding signal (log2 enrichment (interaction score)),[7],-0.56
same,binding signal (log2 enrichment (interaction score)),[8],-1.78
same,binding signal (log2 enrichment (interaction score)),[9],-1.54
same,binding signal (log2 enrichment (interaction score)),[10],-6.5
same,binding signal (log2 enrichment (interaction score)),[11],< -6.54
same,binding signal (log2 enrichment (interaction score)),[12],< -6.64
same,binding signal (log2 enrichment (interaction score)),[13],< -5.98
same,binding signal (log2 enrichment (interaction score)),[14],< -8.28
same,binding signal (log2 enrichment (interaction score)),[15],-1.65
same,binding signal (log2 enrichment (interaction score)),[16],< -6.75
same,binding signal (log2 enrichment (interaction score)),[17],< -7.14
same,binding signal (log2 enrichment (interaction score)),[18],< -7.04
same,binding signal (log2 enrichment (interaction score)),[19],< -7.31
same,binding signal (log2 enrichment (interaction score)),[20],< -5.92
same,binding signal (log2 enrichment (interaction score)),[21],< -6.6
same,binding signal (log2 enrichment (interaction score)),[22],-0.29
GGCUAGAACUAGUGGAUCCCCCGGCGCCCGGCGGCUCGAGCCCGGGUAAGUUGUCAGAGUCUGCAUGCCGCCGGGCGCCAUGCCUGCAGGUCGACUCUAGAAAACAUG,binding signal (log2 enrichment (interaction score)),[23],-4.94
same,binding signal (log2 enrichment (interaction score)),[24],-1.78
same,binding signal (log2 enrichment (interaction score)),[21],< -6.55
GGCUAGAACUAGUGGAUCCCCCGGCGCCCGGCGGCUCGAGCCCGGGUAAGCCUACCUUGUCUGCAUGCCGCCGGGCGCCAUGCCUGCAGGUCGACUCUAGAAAACAUG,binding signal (log2 enrichment (interaction score)),[23],-6.56
same,binding signal (log2 enrichment (interaction score)),[24],< -0.53
same,binding signal (log2 enrichment (interaction score)),[22],-1.01
GGCUAGAACUAGUGGAUCCCCCGGCGCCCGGCGGCUCGAGCCCGGGUAAGGUUGCCAUGUCUGCAUGCCGCCGGGCGCCAUGCCUGCAGGUCGACUCUAGAAAACAUG,binding signal (log2 enrichment (interaction score)),[23],-5.48
same,binding signal (log2 enrichment (interaction score)),[25],-2.02
GGCUAGAACUAGUGGAUCCCCCGGCGCCCGGCGGCUCGAGCCCGGGUAAGUGGACAUUGUCUGCAUGCCGCCGGGCGCCAUGCCUGCAGGUCGACUCUAGAAAACAUG,binding signal (log2 enrichment (interaction score)),[23],-6.09
same,binding signal (log2 enrichment (interaction score)),[24],-1.42
same,binding signal (log2 enrichment (interaction score)),[21],-6.65
GGCUAGAACUAGUGGAUCCCCCGGCGCCCGGCGGCUCGAGCCCGGGUAAGAGGCAAGCGUCUGCAUGCCGCCGGGCGCCAUGCCUGCAGGUCGACUCUAGAAAACAUG,binding signal (log2 enrichment (interaction score)),[23],-5.73
same,binding signal (log2 enrichment (interaction score)),[25],-3.12
same,binding signal (log2 enrichment (interaction score)),[21],-8.3
GGCUAGAACUAGUGGAUCCCCCGGCGCCCGGCGGCUCGAGCCCGGGUAAGGUUACCAAGUCUGCAUGCCGCCGGGCGCCAUGCCUGCAGGUCGACUCUAGAAAACAUG,binding signal (log2 enrichment (interaction score)),[23],-4.33
same,binding signal (log2 enrichment (interaction score)),[25],-2.95
GGCUAGAACUAGUGGAUCCCCCGGCGCCCGGCGGCUCGAGCCCGGGUAAGUUGACAAGGUCUGCAUGCCGCCGGGCGCCAUGCCUGCAGGUCGACUCUAGAAAACAUG,binding signal (log2 enrichment (interaction score)),[23],-5.34
same,binding signal (log2 enrichment (interaction score)),[25],-2.46

# Quoted from above for reference:
sequence,measurement,setting,value
GGCUAGAACUAGUGGAUCCCCCGGCGCCCGGCGGCUCGAGCCCGGGUAAGUGUAGAUAGUCUGCAUGCCGCCGGGCGCCAUGCCUGCAGGUCGACUCUAGAAAACAUG,binding signal (log2 enrichment (interaction score)),[17],< -7.14
same,binding signal (log2 enrichment (interaction score)),[18],< -7.04
same,binding signal (log2 enrichment (interaction score)),[19],< -7.31
same,binding signal (log2 enrichment (interaction score)),[20],< -5.92
same,binding signal (log2 enrichment (interaction score)),[21],< -6.6
same,binding signal (log2 enrichment (interaction score)),[22],-0.29
GGCUAGAACUAGUGGAUCCCCCGGCGCCCGGCGGCUCGAGCCCGGGUAAGUUGUCAGAGUCUGCAUGCCGCCGGGCGCCAUGCCUGCAGGUCGACUCUAGAAAACAUG,binding signal (log2 enrichment (interaction score)),[23],-4.94
same,binding signal (log2 enrichment (interaction score)),[24],-1.78

# Reference: article PMC8384837
